## Small-molecule microarray binding calls

Calls as published in the ROBIN set (doi:10.1002/anie.202211358).

Targets, with sequences 5′ to 3′:
T1: PreQ1 riboswitch RNA pseudoknot, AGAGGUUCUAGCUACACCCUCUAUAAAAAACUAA. From B. subtilis. Hit rate about 0.7% of about 24,000 compounds.
T2: SAM-II riboswitch RNA pseudoknot, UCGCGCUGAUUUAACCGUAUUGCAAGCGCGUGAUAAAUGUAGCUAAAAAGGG. Hit rate about 1% of about 21,000 compounds.
T3: TPP riboswitch RNA three-way junction, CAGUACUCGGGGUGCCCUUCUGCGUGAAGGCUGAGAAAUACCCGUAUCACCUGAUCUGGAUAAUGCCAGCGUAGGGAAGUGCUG. Hit rate about 0.7% of about 24,000 compounds.

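The test is a small-molecule microarray: each compound is printed twice on a reactive slide, and binding shows as fluorescence of the labelled oligonucleotide after washing. For the PreQ1, TPP and SAM-II riboswitches the laboratory earlier reported (doi:10.1038/s41467-019-09493-3) 1 µM RNA, 2 h, and a rule that included a mean Z-score above 3 (spot signal-to-noise against the whole library), a score well above that on a control array, and duplicate spots agreeing (coefficient of variation under 100). The data file gives only the calls; its cut-offs may differ, and compounds hitting several targets are kept. These are primary screening calls, not affinities; a compound without a hit may have attached poorly or may still bind in solution.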
A compound is marked hit if it was called a hit and no hit if it was screened but was not.
Compounds were drawn at random from those tested, without regard to their results.
A target missing from an entry has no call listed here.
A dash means that no call is listed here.

Compound,T1,T2,T3
Cc1ccc(NC(=O)CNC(=O)c2cn(CC3CCCNC3)nn2)c(F)c1 (configuration not stated),no hit,no hit,no hit
NCc1noc(-c2ccccc2)n1,no hit,no hit,no hit
c1ccc(-c2nc3ccccc3s2)nc1,no hit,no hit,no hit
COc1cc(-c2ccc(NC(=O)NC3CC3)c(OC)c2)ccc1NC(=O)NC1CC1,no hit,no hit,no hit
Cc1cc(C)n(-c2nc3ccccc3nc2Nc2ccccc2)n1,no hit,no hit,no hit
Cc1cc(Cl)ccc1NC(c1ccccn1)c1ccc2cccnc2c1O (configuration not stated),no hit,no hit,no hit
Cn1cc(-c2ccc3nnc(Sc4ccc5ncccc5c4)n3n2)cn1,no hit,no hit,no hit
Cc1ccc(-c2nc(CCO)n(Cc3ccc(F)cc3)n2)o1,no hit,no hit,no hit
CN1CCOc2cc(C(=O)N[C@H]3CC[C@H]3NC3CCOCC3)ccc21,no hit,no hit,no hit
Nc1c(C(=O)Nc2cccc(C(F)(F)F)c2)c2ccccn2c1C(=O)c1ccccc1,no hit,-,no hit
CC(=O)c1cccc(C(=O)N2CCC3(CC2)[C@H](O)C[C@@H]3OCCN)c1,no hit,no hit,no hit
CC1CCC(C(C)C)C(OCC(O)CN2CCCCC2)C1 (configuration not stated),no hit,no hit,no hit
N#Cc1c(-c2ccoc2)cc(-c2cnn(-c3ccccc3)c2)nc1N,no hit,no hit,no hit
CCC[C@H]1CN(CCCO)C[C@@H]1NC(=O)c1cnn[nH]1,no hit,no hit,no hit
CC(C)CNC1=C(C(N)=O)S(=O)(=O)c2ccccc21,no hit,-,no hit
Cc1ccc(-c2cc(N)n(-c3ccc(C)cc3)n2)cc1,no hit,no hit,no hit
Nc1c(-c2nc(-c3cccnc3)no2)nnn1-c1ccccc1Cl,no hit,-,no hit
Nc1ccccc1SCc1cn2cccnc2n1,no hit,no hit,no hit
CC(C)(C)NCC(O)COc1ccc(C(C)(C)C)cc1 (configuration not stated),no hit,no hit,no hit
OC(COc1ccc(F)cc1)Cn1c(Cc2ccccc2)nc2ccccc21 (configuration not stated),no hit,-,no hit
Cl.Cl.OCCNCCCNCc1ccccc1,no hit,no hit,no hit
N#Cc1nc(-c2ccccc2)oc1NCC1CCCO1 (configuration not stated),no hit,no hit,no hit
O=c1c(Cl)c(Nc2cccc(Cl)c2)cnn1-c1nc2ccccc2s1,no hit,no hit,no hit
CSc1ccc(C2C(C#N)=C(N)Oc3cc(C)[nH]c(=O)c32)cc1 (configuration not stated),no hit,no hit,no hit
Cc1cc(Nc2ccccc2)n2nc(-c3ccccc3C)nc2n1,no hit,-,no hit
Cc1nn(-c2ccccn2)c2c1-c1nc(N)ncc1CC2,no hit,no hit,no hit
Cc1ccc(-c2c(NCCCc3ccccc3)c(=O)c2=O)cc1C,no hit,-,hit
N#Cc1nc(C=Cc2cccs2)oc1NC1CCCCC1,no hit,-,no hit
COC(=O)C(Cc1c[nH]c2ccccc12)NC1OC(=O)c2c1ccc(OC)c2OC (configuration not stated),no hit,no hit,no hit
CCC[C@H]1CN(Cc2cc(OC)ccn2)C[C@@H]1NC(=O)CO,no hit,no hit,no hit
CCOC(=O)c1cccc(NC2=NS(=O)(=O)C(c3ccc(Cl)cc3)=C2C)c1,no hit,-,no hit
Cn1c(=O)c2c(-c3ccccc3)n(-c3cccc(N)c3)cc2n(C)c1=O,no hit,no hit,no hit
COc1ccccc1CCC(=O)N1C[C@H](CO)C[C@H](CN2CCOCC2)C1,no hit,no hit,no hit
Cc1ccc2nc(-c3ccsc3)c(Nc3ccccc3)n2c1,no hit,no hit,no hit
Cc1noc(C)c1CCCNC1CCN(c2ccc(C#N)cn2)CC1,no hit,no hit,no hit
CN(Cc1ccc(Oc2ccccc2)cc1)Cc1cc2n(n1)CCCNC2,no hit,no hit,no hit
CCn1cc(C(=O)O)c(=O)c2cc(F)c(N3CCNCC3)cc21,no hit,no hit,no hit
CCO[C@H]1C[C@@H](O)C12CCN(C(=O)c1sccc1S(N)(=O)=O)CC2,no hit,no hit,no hit
CCc1ncc(C(O)c2ccccc2)n1C (configuration not stated),no hit,no hit,no hit
c1cnc2c(C3NCCc4[nH]cnc43)cnn2c1 (configuration not stated),no hit,no hit,no hit
CCN1CCCC1CNCc1ccc(C)s1.Cl.Cl (configuration not stated),no hit,no hit,no hit
O=C1CC(N2CCC(Nc3ccc4c(c3)OCO4)CC2)C(=O)N1c1ccc(F)cc1 (configuration not stated),no hit,no hit,no hit
Cn1c(=O)n(C)c2cc(CNc3ccc(N4CCOCC4)c(Cl)c3)ccc21,no hit,-,no hit

The first 4 entries again:

{"compound": "Cc1ccc(NC(=O)CNC(=O)c2cn(CC3CCCNC3)nn2)c(F)c1", "stereo": "configuration not stated", "T1": "no hit", "T2": "no hit", "T3": "no hit"}
{"compound": "NCc1noc(-c2ccccc2)n1", "T1": "no hit", "T2": "no hit", "T3": "no hit"}
{"compound": "c1ccc(-c2nc3ccccc3s2)nc1", "T1": "no hit", "T2": "no hit", "T3": "no hit"}
{"compound": "COc1cc(-c2ccc(NC(=O)NC3CC3)c(OC)c2)ccc1NC(=O)NC1CC1", "T1": "no hit", "T2": "no hit", "T3": "no hit"}